# Taken from: PubChem BioAssay AID1259254 (NCATS, 2017)
# Test: 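Finding genes that stop cells copying their DNA twice in one cycle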 (primary screen)
# System: human HCT116 colorectal cancer cells
# Reagents: single siRNA against human genes
# Time to read-out: 3 days
# Measured: 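Imaged Hoechst DNA stain sorts each cell into a cycle phase by DNA amount; per plate, G2 fraction set to 0% for non-targeting and 100% for GMNN siRNA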
# Scale: G2 robust z-score and G2 cells, % of GMNN control: higher = more G2 cells, more excess DNA replication
# Rule for the call: 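An siRNA counts as active if its G2 robust z-score lies at least 5 MADs above the screen median; here such calls match roughly 38% of GMNN control or more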
# The whole screen tested about 59,000 reagents; below is a random part of them. About 1,550 of them (2.6%) count as active. 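G2 share is only a proxy for re-replication; each gene was hit by three separate siRNAs, and active genes were retested.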 Unmarked entries are inactive. Reagents against one gene are numbered here. Not all columns of the deposit are shown. No sequences are given here. Not given: the amount of reagent.
Target gene,reagent no.,G2 robust z-score,"G2 cells, % of GMNN control"
WSCD1 (WSC domain sialate O sulfotransferase 1),1,1.58,14.1
WSCD1 (WSC domain sialate O sulfotransferase 1),2,-0.192,1.61
WSCD1 (WSC domain sialate O sulfotransferase 1),3,0.896,9.27
CHST9 (carbohydrate sulfotransferase 9),1,0.212,4.46
CHST9 (carbohydrate sulfotransferase 9),2,1.33,12.3
CHST9 (carbohydrate sulfotransferase 9),3,-0.782,-2.54
ZNF184 (zinc finger protein 184),1,2.69,21.9
ZNF184 (zinc finger protein 184),2,0.352,5.44
ZNF184 (zinc finger protein 184),3,-0.445,-0.164
NIPAL4 (NIPA like domain containing 4),1,-0.272,1.05
NIPAL4 (NIPA like domain containing 4),2,0.871,9.09
NIPAL4 (NIPA like domain containing 4),3,0.102,3.68
FTCDNL1 (formiminotransferase cyclodeaminase N-terminal like),1,1.15,11
FTCDNL1 (formiminotransferase cyclodeaminase N-terminal like),2,-0.725,-2.13
FTCDNL1 (formiminotransferase cyclodeaminase N-terminal like),3,0.0348,3.21
SLC66A1LP,1,0.13,3.88
SLC66A1LP,2,-0.898,-3.35
SLC66A1LP,3,-0.41,0.0825
TUBB4B (tubulin beta 4B class IVb),1,-0.188,1.64
TUBB4B (tubulin beta 4B class IVb),2,9.61 (active),70.6
TUBB4B (tubulin beta 4B class IVb),3,-0.687,-1.87
ITM2C (integral membrane protein 2C),1,0.273,4.89
ITM2C (integral membrane protein 2C),2,0.527,6.67
ITM2C (integral membrane protein 2C),3,-0.844,-2.97
EXOC2 (exocyst complex component 2),1,0.0937,3.63
EXOC2 (exocyst complex component 2),2,0.196,4.35
EXOC2 (exocyst complex component 2),3,-0.401,0.147
OCLNP1 (OCLN pseudogene 1),1,0.522,6.64
OCLNP1 (OCLN pseudogene 1),2,1.77,15.4
OCLNP1 (OCLN pseudogene 1),3,0.724,8.06
MC2R (melanocortin 2 receptor),1,1.1,10.7
MC2R (melanocortin 2 receptor),2,-1.6,-8.32
MC2R (melanocortin 2 receptor),3,2.28,19
NKAP (NFKB activating protein),1,-1.03,-4.28
NKAP (NFKB activating protein),2,-0.281,0.99
NKAP (NFKB activating protein),3,-0.744,-2.27
MRS2 (magnesium transporter MRS2),1,1.35,12.5
MRS2 (magnesium transporter MRS2),2,0.741,8.18
MRS2 (magnesium transporter MRS2),3,-0.462,-0.283
RPL31P50 (ribosomal protein L31 pseudogene 50),1,4.28,33.1
RPL31P50 (ribosomal protein L31 pseudogene 50),2,1.31,12.2
RPL31P50 (ribosomal protein L31 pseudogene 50),3,0.453,6.15
FBXO9 (F-box protein 9),1,3.78,29.6
FBXO9 (F-box protein 9),2,0.746,8.22
FBXO9 (F-box protein 9),3,0.108,3.73
EN2 (engrailed homeobox 2),1,-0.65,-1.6
EN2 (engrailed homeobox 2),2,2.76,22.4
EN2 (engrailed homeobox 2),3,-0.94,-3.65
HIF1AN (hypoxia inducible factor 1 subunit alpha inhibitor),1,0.193,4.33
HIF1AN (hypoxia inducible factor 1 subunit alpha inhibitor),2,0.00737,3.02
HIF1AN (hypoxia inducible factor 1 subunit alpha inhibitor),3,1.16,11.1
CIITA (class II major histocompatibility complex transactivator),1,-0.58,-1.11
CIITA (class II major histocompatibility complex transactivator),2,2.72,22.1
CIITA (class II major histocompatibility complex transactivator),3,-0.623,-1.41
UBR1 (ubiquitin protein ligase E3 component n-recognin 1),1,0.462,6.22
UBR1 (ubiquitin protein ligase E3 component n-recognin 1),2,-0.0575,2.56
UBR1 (ubiquitin protein ligase E3 component n-recognin 1),3,3.91,30.5
CIMIP7 (ciliary microtubule inner protein 7),1,2.05,17.4
CIMIP7 (ciliary microtubule inner protein 7),2,-0.22,1.42
CIMIP7 (ciliary microtubule inner protein 7),3,-0.221,1.41
STRA6 (signaling receptor and transporter of retinol STRA6),1,4.12,32
STRA6 (signaling receptor and transporter of retinol STRA6),2,-0.664,-1.7
STRA6 (signaling receptor and transporter of retinol STRA6),3,-0.254,1.18
MBP (myelin basic protein),1,0.592,7.13
MBP (myelin basic protein),2,-1.06,-4.5
MBP (myelin basic protein),3,1.66,14.6
COX5A (cytochrome c oxidase subunit 5A),1,-0.0778,2.42
COX5A (cytochrome c oxidase subunit 5A),2,5.63 (active),42.5
COX5A (cytochrome c oxidase subunit 5A),3,-0.513,-0.641

Records listed so far whose gene name starts with S or s:
Target gene,reagent no.,G2 robust z-score,"G2 cells, % of GMNN control"
SLC66A1LP,1,0.13,3.88
SLC66A1LP,2,-0.898,-3.35
SLC66A1LP,3,-0.41,0.0825
STRA6 (signaling receptor and transporter of retinol STRA6),1,4.12,32
STRA6 (signaling receptor and transporter of retinol STRA6),2,-0.664,-1.7
STRA6 (signaling receptor and transporter of retinol STRA6),3,-0.254,1.18
